Experimental data: PubChem BioAssay AID686938 (Drosophila RNAi Screening Center, 2013)
Assay: 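Looking for CRAC channel components and the factors controlling them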 (primary screen). Cell system: Drosophila S2R+ cells. Reagent: long dsRNA against Drosophila genes, about 0.25 µg dsRNA per well, roughly 10,000 cells. Duration: 5 days of knock-down before the calcium assay. Conditions: thapsigargin (SERCA pump blocker) to empty calcium stores; entry signal taken 4 min after adding it. Measured: 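Duplicate raw fluo-4 intensities per well from a plate reader, at rest and four minutes after thapsigargin emptied calcium stores; entry-to-rest ratio filled for only some wells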. Scale: calcium entry signal: higher = stronger calcium signal after store depletion; entry to resting ratio: higher = more calcium entry relative to resting level; resting calcium signal: higher = higher resting calcium signal. Active means: 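Called when the plate z-score of the entry-to-rest ratio, mean of duplicates, falls below −3; wells with low overall dye signal (Fmax z below −2) or more than five off-targets excluded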. Calls: active = strongly reduced calcium entry; inactive = no strong reduction.
The deposit covers about 23,000 reagents; below is a random part of those that have a named target and a result. Of all reagents, 75 (0.33%) are marked active. 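Raw plate signals without normalisation; calls rest on plate z-scores that were not deposited; ratio present for only 364 wells.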 Entries without a mark were called inactive. Names joined by + are all predicted targets of the reagent. Not stated in the record: the dose of the treatment.

no.	gene knocked down	PubChem SID	calcium entry signal, replicate 1 (fluorescence units)	calcium entry signal, replicate 2 (fluorescence units)	entry to resting ratio	resting calcium signal, replicate 1 (fluorescence units)	resting calcium signal, replicate 2 (fluorescence units)
1	Rpn7	SID104196633	1.75e7	1.87e7		1.21e7	1.13e7
2	boi	SID104198217	4.15e7	4.05e7	2.1	2.01e7	1.78e7
3	boi	SID104198390	4.83e7	4.58e7	2	2.42e7	1.94e7
4	CG2003	SID104195203	3.65e7	4.78e7	2.1	1.78e7	1.94e7
5	CG40245 (retired record)	SID104200804	3.61e7	3.78e7		1.57e7	1.81e7
6	CG14007	SID104182131	2.95e7	2.70e7		1.45e7	1.36e7
7	CG15873	SID104184069	3.83e7	4.23e7		2.00e7	2.10e7
8	Mdh2	SID104196153	3.34e7	3.78e7		4.89e7	1.60e7
9	CG13123	SID104182011	3.75e7	4.54e7		1.70e7	1.76e7
10	Dhps	SID104190740	3.14e7	3.16e7		1.52e7	1.44e7
11	Pnn	SID104196207	4.33e7	3.76e7		2.11e7	2.00e7
12	CG31639	SID104180702	3.12e7	3.60e7		1.74e7	1.76e7
13	how	SID104196758	3.53e7	4.77e7		2.32e7	6.11e7
14	CG32182	SID104189300	3.99e7	4.02e7		1.71e7	1.86e7
15	dare + CG30033	SID104202267	3.96e7	4.50e7		2.14e7	2.02e7
16	kappaB-Ras + CG30503	SID104186411	4.82e7	4.33e7		2.19e7	1.90e7
17	kappaB-Ras + CG30503	SID104187428	4.51e7	4.29e7		2.19e7	1.99e7
18	sac	SID104192029	3.30e7	5.58e7		1.61e7	2.34e7
19	Toll-7	SID104187355	5.71e7	2.67e7		2.54e7	1.33e7
20	Ldaf1	SID104197755	4.12e7	4.13e7		1.85e7	1.89e7
21	CG6441	SID104182749	3.64e7	3.75e7		1.73e7	1.77e7
22	d-cup	SID104194638	2.95e7	3.14e7		1.55e7	1.67e7
23	ph-d	SID104198611	3.88e7	4.40e7	2.1	1.81e7	1.76e7
24	ph-d	SID104202548	3.70e7	4.48e7		1.62e7	1.82e7

2 neighbouring reagents from above:
no.	gene knocked down	PubChem SID	calcium entry signal, replicate 1 (fluorescence units)	calcium entry signal, replicate 2 (fluorescence units)	entry to resting ratio	resting calcium signal, replicate 1 (fluorescence units)	resting calcium signal, replicate 2 (fluorescence units)
15	dare + CG30033	SID104202267	3.96e7	4.50e7		2.14e7	2.02e7
16	kappaB-Ras + CG30503	SID104186411	4.82e7	4.33e7		2.19e7	1.90e7
